These results are taken from patent US9249104B2, “Pyrazole indanyl carboxamides” (BAYER CROPSCIENCE AG, priority 2012, dated 2016).

Structures are written as SMILES.

The data set can be described thus: logP by HPLC on reversed phase columns (EEC directive 79/831 Annex V.A8). The format is physicochemical. Particulars: method [a]: LC-MS at pH 2.7, 0.1% formic acid in water / acetonitrile; compounds of formula (I), Table 1.

For `Cc1nn(C)c(F)c1C(=O)Nc1cccc2c1CC(C)(C)C2` [Example 44], the logP was 3.17[a].
